Assay results taken from US7820159B2, “MN/CA IX and EGFR pathway inhibition” (Instiute of Virology of the Slovak Academy of Sciences, priority 2006, dated 2010).
At least one compound was matched to its structure with a doubt left.

System: PI3K activity (phosphorylation of Akt Ser 473) in SKRC-17 cells
Experiment: Phosphorylation status of Akt (Ser 473) by immunoblot in transiently CA IX-transfected, EGF-stimulated cells
Type: cell-based, human
Conditions: for Akt phosphorylation (Ser 473): SKRC-17 cells transiently transfected with wild-type CA IX, serum starved, 8 h pretreatment with inhibitor, EGF 50 ng/ml 30 min, FIG. 3A lanes 3-6

O=c1cc(N2CCOCC2)oc2c(-c3ccccc3)cccc12 [LY294002]
Akt phosphorylation (Ser 473): pharmacologically reduced | Inhibition of base level and CA IX stimulated PI3K activity (Akt Ser 473 phosphorylation), comparison of the two inhibitors (at the indicated concentrations (FIG. 3A), LY294002 versus wortmannin): better inhibitor of both the base level and the CA IX stimulated PI3K activity

COC[C@H]1OC(=O)c2coc3c2[C@@]1(C)C1=C(C3=O)[C@@H]2CCC(=O)[C@@]2(C)C[C@H]1OC(C)=O [wortmannin]
Akt phosphorylation (Ser 473): pharmacologically reduced
